Data: PubChem BioAssay AID2662 (National Center for Advancing Translational Sciences (NCATS), 2010)
About 110 (0.038%) of roughly 290,000 compounds were called active. Inconclusive means that the source gave no clear call. Such entries were picked first, then a sample of the others. The call rests on the fitted dose curve; in most records, active means well fitted inhibition curve with a large enough effect in the polarisation, with a control signal flat (not every such curve was filed as active); inconclusive means small, poorly fitted or top-dose-only effect, or effect the other way, or a change in a side signal; inactive means no such curve, though single readings can be large or run the other way; the % refers to the polarisation. Potencies of inconclusive entries are doubtful fits and often do not repeat. “Side channel” marks fits to a control or component signal instead of the main read-out.
Potency means the concentration at half of the fitted maximal effect.

The chains behind the UniProt entries cited, without tags or fusion partners.
UniProt Q03164, whole entry, looked up: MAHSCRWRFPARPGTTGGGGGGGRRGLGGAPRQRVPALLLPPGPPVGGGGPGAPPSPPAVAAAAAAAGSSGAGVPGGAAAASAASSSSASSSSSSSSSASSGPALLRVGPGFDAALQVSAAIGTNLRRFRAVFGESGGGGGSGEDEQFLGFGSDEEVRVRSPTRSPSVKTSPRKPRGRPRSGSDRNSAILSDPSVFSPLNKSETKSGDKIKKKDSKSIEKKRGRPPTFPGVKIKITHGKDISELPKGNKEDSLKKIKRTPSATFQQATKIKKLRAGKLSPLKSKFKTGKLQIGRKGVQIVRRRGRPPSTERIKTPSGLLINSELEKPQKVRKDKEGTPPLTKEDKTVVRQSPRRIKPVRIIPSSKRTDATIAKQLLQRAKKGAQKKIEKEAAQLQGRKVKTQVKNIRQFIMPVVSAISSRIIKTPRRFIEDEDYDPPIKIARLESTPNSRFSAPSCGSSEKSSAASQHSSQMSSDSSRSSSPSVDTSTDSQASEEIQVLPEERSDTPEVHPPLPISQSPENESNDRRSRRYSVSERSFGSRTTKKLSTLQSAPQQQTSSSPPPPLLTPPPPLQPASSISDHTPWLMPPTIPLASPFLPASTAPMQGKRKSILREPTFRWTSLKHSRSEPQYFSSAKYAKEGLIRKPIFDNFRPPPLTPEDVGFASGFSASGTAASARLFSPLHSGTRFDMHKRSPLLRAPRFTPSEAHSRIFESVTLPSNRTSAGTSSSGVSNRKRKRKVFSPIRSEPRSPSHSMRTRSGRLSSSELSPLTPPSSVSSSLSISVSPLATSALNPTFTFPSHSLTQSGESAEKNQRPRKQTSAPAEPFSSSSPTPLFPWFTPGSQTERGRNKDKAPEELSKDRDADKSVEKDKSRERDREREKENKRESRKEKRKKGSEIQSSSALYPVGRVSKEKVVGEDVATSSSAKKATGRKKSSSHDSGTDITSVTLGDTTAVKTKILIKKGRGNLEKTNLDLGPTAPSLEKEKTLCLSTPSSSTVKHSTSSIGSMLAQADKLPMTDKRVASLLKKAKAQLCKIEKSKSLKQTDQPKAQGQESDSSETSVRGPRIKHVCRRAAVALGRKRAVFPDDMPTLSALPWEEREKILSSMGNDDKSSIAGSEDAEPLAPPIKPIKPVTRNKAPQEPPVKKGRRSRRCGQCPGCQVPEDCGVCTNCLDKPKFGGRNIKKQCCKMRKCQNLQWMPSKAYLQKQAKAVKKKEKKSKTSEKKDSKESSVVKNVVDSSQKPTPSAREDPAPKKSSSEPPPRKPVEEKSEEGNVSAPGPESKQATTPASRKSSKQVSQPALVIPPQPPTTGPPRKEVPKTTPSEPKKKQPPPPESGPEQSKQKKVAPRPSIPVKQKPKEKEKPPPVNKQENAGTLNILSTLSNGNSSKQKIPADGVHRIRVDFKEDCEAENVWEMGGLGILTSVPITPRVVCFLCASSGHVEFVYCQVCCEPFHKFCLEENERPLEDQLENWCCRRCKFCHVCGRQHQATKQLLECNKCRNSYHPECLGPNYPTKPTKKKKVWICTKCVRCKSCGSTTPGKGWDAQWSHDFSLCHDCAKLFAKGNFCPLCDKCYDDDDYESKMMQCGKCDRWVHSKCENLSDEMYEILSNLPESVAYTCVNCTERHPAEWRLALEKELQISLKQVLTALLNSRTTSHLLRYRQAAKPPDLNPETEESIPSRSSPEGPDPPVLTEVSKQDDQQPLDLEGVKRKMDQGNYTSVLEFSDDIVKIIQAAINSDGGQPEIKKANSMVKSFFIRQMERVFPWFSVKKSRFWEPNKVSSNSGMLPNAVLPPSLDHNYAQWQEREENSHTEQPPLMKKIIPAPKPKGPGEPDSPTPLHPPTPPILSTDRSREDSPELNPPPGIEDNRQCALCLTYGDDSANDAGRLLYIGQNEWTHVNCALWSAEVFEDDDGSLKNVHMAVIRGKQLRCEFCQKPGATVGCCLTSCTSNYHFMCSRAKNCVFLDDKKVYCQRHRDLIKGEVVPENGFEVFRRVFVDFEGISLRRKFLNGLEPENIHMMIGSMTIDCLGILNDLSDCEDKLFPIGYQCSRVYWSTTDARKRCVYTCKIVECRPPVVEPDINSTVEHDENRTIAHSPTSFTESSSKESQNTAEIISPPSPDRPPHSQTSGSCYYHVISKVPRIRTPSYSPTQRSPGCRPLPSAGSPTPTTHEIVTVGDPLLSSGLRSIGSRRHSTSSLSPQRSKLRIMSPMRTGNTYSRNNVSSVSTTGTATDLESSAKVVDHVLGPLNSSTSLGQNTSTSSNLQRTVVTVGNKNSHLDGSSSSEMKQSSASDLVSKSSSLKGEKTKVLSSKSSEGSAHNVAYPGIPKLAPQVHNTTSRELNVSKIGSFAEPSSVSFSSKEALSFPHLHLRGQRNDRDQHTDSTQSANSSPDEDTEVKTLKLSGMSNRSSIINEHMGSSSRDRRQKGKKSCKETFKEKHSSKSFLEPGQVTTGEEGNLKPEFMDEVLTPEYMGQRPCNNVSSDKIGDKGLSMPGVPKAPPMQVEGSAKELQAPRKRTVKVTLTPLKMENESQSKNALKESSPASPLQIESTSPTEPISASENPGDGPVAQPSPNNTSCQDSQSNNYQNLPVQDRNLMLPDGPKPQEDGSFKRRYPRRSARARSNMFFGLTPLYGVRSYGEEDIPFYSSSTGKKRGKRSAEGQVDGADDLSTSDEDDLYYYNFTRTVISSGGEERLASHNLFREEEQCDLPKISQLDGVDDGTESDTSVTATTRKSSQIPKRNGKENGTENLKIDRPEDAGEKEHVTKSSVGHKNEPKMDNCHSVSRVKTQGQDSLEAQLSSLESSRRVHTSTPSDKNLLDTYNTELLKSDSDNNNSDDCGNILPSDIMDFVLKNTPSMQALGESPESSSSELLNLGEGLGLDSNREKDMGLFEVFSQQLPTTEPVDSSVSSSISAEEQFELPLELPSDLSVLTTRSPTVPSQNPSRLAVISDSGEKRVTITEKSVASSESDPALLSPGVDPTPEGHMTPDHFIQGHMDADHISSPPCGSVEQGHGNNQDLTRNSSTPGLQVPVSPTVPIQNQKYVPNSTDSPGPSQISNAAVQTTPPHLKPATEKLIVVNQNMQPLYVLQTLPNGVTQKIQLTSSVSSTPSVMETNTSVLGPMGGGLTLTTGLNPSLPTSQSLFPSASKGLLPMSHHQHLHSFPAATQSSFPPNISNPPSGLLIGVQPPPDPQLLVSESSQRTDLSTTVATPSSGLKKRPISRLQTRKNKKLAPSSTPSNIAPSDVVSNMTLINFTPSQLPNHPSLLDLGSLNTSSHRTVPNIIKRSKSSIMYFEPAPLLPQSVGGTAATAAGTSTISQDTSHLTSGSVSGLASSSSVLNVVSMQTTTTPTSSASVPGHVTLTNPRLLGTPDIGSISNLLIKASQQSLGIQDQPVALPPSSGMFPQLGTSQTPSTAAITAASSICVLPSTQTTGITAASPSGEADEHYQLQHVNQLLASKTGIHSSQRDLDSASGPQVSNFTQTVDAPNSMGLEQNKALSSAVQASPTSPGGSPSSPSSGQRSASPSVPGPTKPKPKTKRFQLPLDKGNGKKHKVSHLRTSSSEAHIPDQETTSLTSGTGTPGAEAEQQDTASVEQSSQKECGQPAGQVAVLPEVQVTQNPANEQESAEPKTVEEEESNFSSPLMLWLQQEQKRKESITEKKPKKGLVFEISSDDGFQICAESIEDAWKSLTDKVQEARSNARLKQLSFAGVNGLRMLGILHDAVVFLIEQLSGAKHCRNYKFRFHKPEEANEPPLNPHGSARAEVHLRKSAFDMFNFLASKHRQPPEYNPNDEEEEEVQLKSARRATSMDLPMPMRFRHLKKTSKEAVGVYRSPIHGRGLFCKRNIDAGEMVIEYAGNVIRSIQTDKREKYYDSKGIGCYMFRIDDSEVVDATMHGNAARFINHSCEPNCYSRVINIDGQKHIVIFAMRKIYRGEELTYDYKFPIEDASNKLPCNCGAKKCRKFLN

What follows are molecules tested against Histone-lysine N-methyltransferase 2A (Homo sapiens) (UniProt Q03164) (assay: qHTS Fluorescence Polarization Assay for Inhibitors of MLL CXXC domain - DNA interaction). Settings: MLL-CXXC / FITC-HOXA9 DNA fluorescence polarization; series mostly up to 115 µM.
Procedure, shortened: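 Steps: dispense CXXC domain solution (7 uM) → pin compounds or unlabeled HOX-A9 DNA control → 5 min ambient → add FLSN-HOX-A9 solution (50 nM) → spin → 30 min ambient → fluorescence polarization. Tris pH 7.5/NaCl/DTT/BSA buffer.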
With `COc1ccc(CNC(=O)C(OC(=O)c2ccco2)c2ccccc2)cc1` (configuration not stated) the Potency was inconclusive: 56.2 µM [fluorescent, side channel, partial curve, poor fit].
`CC(=O)c1cccc(NC(=O)c2ccc3c(c2)CCN3S(=O)(=O)c2ccccc2)c1` was tested, and the Potency was inconclusive: 1 µM [quencher, side channel, full curve].
For `CCOC(=O)c1nnc(-c2cccs2)nc1Oc1ccccc1C(=O)OC`, the Potency was inconclusive: 28.2 µM [quencher, side channel, partial curve].
In the case of `CCOc1ccc(-c2csc(NC(=O)c3ccc(S(=O)(=O)N4CCc5ccccc5C4)cc3)n2)cc1`, the Potency is reported as “inactive”.
With `O=C1SC(SCc2ccccc2Cl)=N/C1=C\c1ccc(C(=O)O)cc1` the Potency was inconclusive: 89.1 µM [inhibitor, single point].
`CN1CCCN(S(=O)(=O)c2ccc3ccccc3c2)CC1` was tested, and the Potency was “inactive”.
For `O=c1c2ccccc2nc(/C=C/c2ccccc2)n1CCc1ccccc1`, the Potency was “inactive”.
For `COc1cccc(N/C=C/c2onc(C)c2[N+](=O)[O-])c1`, the Potency was inconclusive: 1 µM [fluorescent, side channel, full curve].
`CSc1cccc(CN2CCCC(CNC(=O)c3ccco3)C2)c1` (configuration not stated) was tested, and the Potency was inconclusive: 8.91 µM [fluorescent, side channel, single point].
`CC(=O)NC1=NC(=O)/C(=C/c2cc(C)n(-c3cccc(C(=O)O)c3)c2C)S1` was tested, and the Potency was inconclusive: 31.6 µM [fluorescent, side channel, partial curve].
With `CSc1ccccc1C(=O)NCc1ccccc1` the Potency was inconclusive: 70.8 µM [inhibitor, single point].
In the case of `NC(=O)c1ccc(N=Cc2ccc([N+](=O)[O-])s2)cc1`, the Potency is reported as inconclusive: 44.7 µM [inhibitor, single point].
With `Cc1cccc(N2NC(=O)/C(=C/c3ccc(-c4ccc(Cl)c(C(=O)O)c4)o3)C2=O)c1` the Potency was inconclusive: 89.1 µM [inhibitor, single point].
In the case of `COC(=O)Nc1nc(C)c(C(=O)N(C)C)s1`, the Potency is reported as “inactive”.
With `Cc1cc(C)cc(N(CC(=O)Nc2ccccc2-c2ccccc2)S(=O)(=O)c2ccccc2)c1` the Potency was “inactive”.
For `O=C(COC(=O)C(c1ccccc1)c1ccccc1)NCc1ccco1`, the Potency was inconclusive: 1.12 µM [fluorescent, side channel, full curve, poor fit].
With `Cc1cccc2cc(CN(CC3CCCO3)C(=S)Nc3ccccc3)c(=O)[nH]c12` (configuration not stated) the Potency was inconclusive: 14.1 µM [quencher, side channel, single point].
In the case of `COc1ccccc1C(=O)NCCC(=O)NCCOc1ccccc1`, the Potency is reported as inconclusive: 15.8 µM [quencher, side channel, single point].
With `Cc1ccc2c(c1)N(CCC(=O)NC1CCCCC1)C(=O)CO2` the Potency was inconclusive: 12.6 µM [fluorescent, side channel, single point].
In the case of `Cc1cccc(NS(=O)(=O)c2cccc(C(=O)NCC(C)(C)N3CCOCC3)c2)c1`, the Potency is reported as inconclusive: 11.2 µM [quencher, side channel, partial curve].
In the case of `CCN1CCN(CC(=O)Nc2c(OC)cccc2OC)CC1`, the Potency is reported as “inactive”.
`Cc1ccc(C)c(NC(=O)CSc2nc3nc(-c4cccs4)cc(C(F)(F)F)c3c(=O)[nH]2)c1` was tested, and the Potency was inconclusive: 31.6 µM [inhibitor, single point].
`Cc1cc(C)n2nc(SCc3nnc(-c4ccccc4Br)o3)nc2n1` was tested, and the Potency was “inactive”.
With `O=C(CN(Cc1ccc(Br)cc1)S(=O)(=O)c1ccccc1)NCc1cccnc1` the Potency was inconclusive: 15.8 µM [quencher, single point].
`O=C(Nc1ccc(-c2nc3c(ccc4ccccc43)o2)cc1)c1ccco1` was tested, and the Potency was “inactive”.
In the case of `Cc1cccc(N2C(=O)c3cccc4c(N(C)CCO)ccc(c34)C2=O)c1`, the Potency is reported as inconclusive: 17.8 µM [fluorescent, side channel, partial curve].
For `Oc1ccccc1N=Nc1nc(-c2ccccc2)c(-c2ccccc2)[nH]1`, the Potency was inconclusive: 1 µM [quencher, side channel, full curve].
For `Cc1cccc(NC(=O)NCCCCc2ccccc2)c1`, the Potency was inconclusive: 63.1 µM [fluorescent, side channel, partial curve].
For `O=S(=O)(NCC(c1ccco1)N1CCN(c2ccc(F)cc2)CC1)c1ccc(F)cc1` (configuration not stated), the Potency was inconclusive: 1.58 µM [fluorescent, side channel, full curve, poor fit].
For `CN1CCc2c(sc(NC(=O)c3ccc4ccccc4c3)c2C(N)=O)C1`, the Potency was inconclusive: 39.8 µM [quencher, side channel, single point].
With `COc1ccc(NC(=O)c2cc3cccc(OC)c3oc2=Nc2ccc(C(=O)O)cc2)cc1OC` the Potency was inconclusive: 89.1 µM [inhibitor, single point].
`Nc1ccc(S(=O)(=O)Nc2nccc(/C=C/c3ccc(Br)s3)n2)cc1` was tested, and the Potency was inconclusive: 2.82 µM [inhibitor, full curve, poor fit].
For `Cc1cc(=O)oc2cc(NC(=S)NCc3ccccn3)ccc12`, the Potency was inconclusive: 35.5 µM [inhibitor, single point].
In the case of `Cc1ccc(C(=O)Nn2c(N)c(S(=O)(=O)c3ccc(C)cc3)c3nc4ccccc4nc32)cc1`, the Potency is reported as “inactive”.
For `CCCCNC(=S)Nc1ccc2[nH]c(=O)[nH]c2c1`, the Potency was “inactive”.
With `COc1cc2c(-c3ccccc3O)nc3c(c(C)nn3-c3ccccc3)c2cc1OC` the Potency was inconclusive: 10 µM [quencher, side channel, single point].
For `O=C(Nc1cccc(NC(=O)c2cccc([N+](=O)[O-])c2)n1)c1cccc([N+](=O)[O-])c1`, the Potency was inconclusive: 44.7 µM [quencher, side channel, partial curve].
For `O=C(CNc1ccc(F)cc1)N/N=C/c1c(O)ccc2ccccc12`, the Potency was inconclusive: 31.6 µM [fluorescent, side channel, partial curve].
`COCCNC(=O)/C(C#N)=C/c1ccc(N2CCOCC2)o1` was tested, and the Potency was inconclusive: 3.98 µM [fluorescent, side channel, partial curve].
For `Cc1c(F)cccc1NC(=O)CCCCCC1NC(=O)NC1C` (configuration not stated), the Potency was “inactive”.
For `N=c1ccn2c(n1)O[C@H]1[C@H](O)[C@@H](CO)O[C@H]12`, the Potency was inconclusive: 14.1 µM [fluorescent, side channel, single point].
`Cc1c(-c2ccccn2)c(=O)[nH]n1-c1ccc(F)cc1` was tested, and the Potency was inconclusive: 25.1 µM [fluorescent, side channel, partial curve].
In the case of `C=CCn1ccc(=NC=C(C#N)C#N)c2ccccc21`, the Potency is reported as inconclusive: 12.6 µM [fluorescent, side channel, full curve].
In the case of `COc1ccccc1CN1C(=O)CCC1(C)C(=O)NCc1cccnc1` (configuration not stated), the Potency is reported as inconclusive: 14.1 µM [inhibitor, single point].
In the case of `CCOC(=O)N1CCN(Cc2ccccc2Cl)CC1`, the Potency is reported as “inactive”.
`Cc1c(Cl)c(C(=O)Nc2nc3ccccc3n2CCN2CCCCC2)nn1C` was tested, and the Potency was inconclusive: 31.6 µM [inhibitor, single point].
With `COC(=O)C(C)Sc1nc2c(c(=O)[nH]c(=O)n2C)n1CCC(C)C` (configuration not stated) the Potency was inconclusive: 31.6 µM [quencher, side channel, single point].
`CC(C)CCOc1ccc(/C=C2\CCn3c2nc2cc(C(=O)O)ccc2c3=O)cc1` was tested, and the Potency was inconclusive: 89.1 µM [inhibitor, single point].
For `COc1ccc(N2CCN(c3cc(C)c4ccc(C)cc4n3)CC2)cc1`, the Potency was “inactive”.
In the case of `COc1ccc(CNC(=O)c2ccc(Br)s2)cc1OC`, the Potency is reported as inconclusive: 14.1 µM [quencher, side channel, single point].
In the case of `O=C(CSc1cccc2cccnc12)OCC(=O)c1ccc(Br)cc1`, the Potency is reported as “inactive”.
With `CCS(=O)(=O)c1c([N+](=O)[O-])ncn1C` the Potency was inconclusive: 31.6 µM [fluorescent, side channel, single point].
For `COc1cccc(N2CCN(C(=O)c3c(C)nn(-c4ccccc4)c3C)CC2)c1`, the Potency was inconclusive: 1 µM [fluorescent, side channel, full curve].
`COc1ccc(-n2c(=S)[nH]c3c(oc4ccccc43)c2=O)cc1` was tested, and the Potency was inconclusive: 89.1 µM [quencher, side channel, single point].
`CCN(CC)CCCN(C(=O)c1ccccc1F)c1nc(-c2ccc(OC)cc2)cs1` was tested, and the Potency was inconclusive: 5.62 µM [quencher, side channel, partial curve].
In the case of `CCOC(=O)c1c(NC(=O)N/N=C/c2ccc(O)c(OC)c2)sc(C(C)=O)c1C`, the Potency is reported as inconclusive: 39.8 µM [inhibitor, single point].
For `Nc1c(C(=O)Nc2ccc(Cl)c(Cl)c2)sc2nc(-c3cccnc3)ccc12`, the Potency was “inactive”.
With `Cc1ccc(S(=O)(=O)C(C#N)c2nc3ccccc3nc2OCCO)cc1` (configuration not stated) the Potency was inconclusive: 22.4 µM [quencher, side channel, full curve, poor fit].
`Cc1nc2ccccc2c(=O)n1/N=C/c1ccc(OC(F)F)cc1` was tested, and the Potency was inconclusive: 31.6 µM [fluorescent, side channel, single point].
For `CCN(CC)S(=O)(=O)c1ccc(N2CCN(CCOc3ccc(OC)cc3)CC2)nc1`, the Potency was “inactive”.
`Cc1ccc(N2CC(C(=O)Nc3nnc(SCCN4CCOCC4)s3)CC2=O)cc1` (configuration not stated) was tested, and the Potency was inconclusive: 5.62 µM [fluorescent, side channel, full curve, poor fit].
For `CC1=NN(c2nc(-c3ccc(C)cc3)cs2)C(=O)C1N=Nc1ccccc1O` (configuration not stated), the Potency was inconclusive: 2.24 µM [fluorescent, side channel, full curve].
